These are yes or no findings as the source states them, for the method shown. Binding seen in cells or lysates may run through a third protein. Some entries that bind do so weakly or less than the wild type.

By UniProt entry, the sequences of proteins in these tests, tags left out. Residues count along the entry.
UniProt P11881: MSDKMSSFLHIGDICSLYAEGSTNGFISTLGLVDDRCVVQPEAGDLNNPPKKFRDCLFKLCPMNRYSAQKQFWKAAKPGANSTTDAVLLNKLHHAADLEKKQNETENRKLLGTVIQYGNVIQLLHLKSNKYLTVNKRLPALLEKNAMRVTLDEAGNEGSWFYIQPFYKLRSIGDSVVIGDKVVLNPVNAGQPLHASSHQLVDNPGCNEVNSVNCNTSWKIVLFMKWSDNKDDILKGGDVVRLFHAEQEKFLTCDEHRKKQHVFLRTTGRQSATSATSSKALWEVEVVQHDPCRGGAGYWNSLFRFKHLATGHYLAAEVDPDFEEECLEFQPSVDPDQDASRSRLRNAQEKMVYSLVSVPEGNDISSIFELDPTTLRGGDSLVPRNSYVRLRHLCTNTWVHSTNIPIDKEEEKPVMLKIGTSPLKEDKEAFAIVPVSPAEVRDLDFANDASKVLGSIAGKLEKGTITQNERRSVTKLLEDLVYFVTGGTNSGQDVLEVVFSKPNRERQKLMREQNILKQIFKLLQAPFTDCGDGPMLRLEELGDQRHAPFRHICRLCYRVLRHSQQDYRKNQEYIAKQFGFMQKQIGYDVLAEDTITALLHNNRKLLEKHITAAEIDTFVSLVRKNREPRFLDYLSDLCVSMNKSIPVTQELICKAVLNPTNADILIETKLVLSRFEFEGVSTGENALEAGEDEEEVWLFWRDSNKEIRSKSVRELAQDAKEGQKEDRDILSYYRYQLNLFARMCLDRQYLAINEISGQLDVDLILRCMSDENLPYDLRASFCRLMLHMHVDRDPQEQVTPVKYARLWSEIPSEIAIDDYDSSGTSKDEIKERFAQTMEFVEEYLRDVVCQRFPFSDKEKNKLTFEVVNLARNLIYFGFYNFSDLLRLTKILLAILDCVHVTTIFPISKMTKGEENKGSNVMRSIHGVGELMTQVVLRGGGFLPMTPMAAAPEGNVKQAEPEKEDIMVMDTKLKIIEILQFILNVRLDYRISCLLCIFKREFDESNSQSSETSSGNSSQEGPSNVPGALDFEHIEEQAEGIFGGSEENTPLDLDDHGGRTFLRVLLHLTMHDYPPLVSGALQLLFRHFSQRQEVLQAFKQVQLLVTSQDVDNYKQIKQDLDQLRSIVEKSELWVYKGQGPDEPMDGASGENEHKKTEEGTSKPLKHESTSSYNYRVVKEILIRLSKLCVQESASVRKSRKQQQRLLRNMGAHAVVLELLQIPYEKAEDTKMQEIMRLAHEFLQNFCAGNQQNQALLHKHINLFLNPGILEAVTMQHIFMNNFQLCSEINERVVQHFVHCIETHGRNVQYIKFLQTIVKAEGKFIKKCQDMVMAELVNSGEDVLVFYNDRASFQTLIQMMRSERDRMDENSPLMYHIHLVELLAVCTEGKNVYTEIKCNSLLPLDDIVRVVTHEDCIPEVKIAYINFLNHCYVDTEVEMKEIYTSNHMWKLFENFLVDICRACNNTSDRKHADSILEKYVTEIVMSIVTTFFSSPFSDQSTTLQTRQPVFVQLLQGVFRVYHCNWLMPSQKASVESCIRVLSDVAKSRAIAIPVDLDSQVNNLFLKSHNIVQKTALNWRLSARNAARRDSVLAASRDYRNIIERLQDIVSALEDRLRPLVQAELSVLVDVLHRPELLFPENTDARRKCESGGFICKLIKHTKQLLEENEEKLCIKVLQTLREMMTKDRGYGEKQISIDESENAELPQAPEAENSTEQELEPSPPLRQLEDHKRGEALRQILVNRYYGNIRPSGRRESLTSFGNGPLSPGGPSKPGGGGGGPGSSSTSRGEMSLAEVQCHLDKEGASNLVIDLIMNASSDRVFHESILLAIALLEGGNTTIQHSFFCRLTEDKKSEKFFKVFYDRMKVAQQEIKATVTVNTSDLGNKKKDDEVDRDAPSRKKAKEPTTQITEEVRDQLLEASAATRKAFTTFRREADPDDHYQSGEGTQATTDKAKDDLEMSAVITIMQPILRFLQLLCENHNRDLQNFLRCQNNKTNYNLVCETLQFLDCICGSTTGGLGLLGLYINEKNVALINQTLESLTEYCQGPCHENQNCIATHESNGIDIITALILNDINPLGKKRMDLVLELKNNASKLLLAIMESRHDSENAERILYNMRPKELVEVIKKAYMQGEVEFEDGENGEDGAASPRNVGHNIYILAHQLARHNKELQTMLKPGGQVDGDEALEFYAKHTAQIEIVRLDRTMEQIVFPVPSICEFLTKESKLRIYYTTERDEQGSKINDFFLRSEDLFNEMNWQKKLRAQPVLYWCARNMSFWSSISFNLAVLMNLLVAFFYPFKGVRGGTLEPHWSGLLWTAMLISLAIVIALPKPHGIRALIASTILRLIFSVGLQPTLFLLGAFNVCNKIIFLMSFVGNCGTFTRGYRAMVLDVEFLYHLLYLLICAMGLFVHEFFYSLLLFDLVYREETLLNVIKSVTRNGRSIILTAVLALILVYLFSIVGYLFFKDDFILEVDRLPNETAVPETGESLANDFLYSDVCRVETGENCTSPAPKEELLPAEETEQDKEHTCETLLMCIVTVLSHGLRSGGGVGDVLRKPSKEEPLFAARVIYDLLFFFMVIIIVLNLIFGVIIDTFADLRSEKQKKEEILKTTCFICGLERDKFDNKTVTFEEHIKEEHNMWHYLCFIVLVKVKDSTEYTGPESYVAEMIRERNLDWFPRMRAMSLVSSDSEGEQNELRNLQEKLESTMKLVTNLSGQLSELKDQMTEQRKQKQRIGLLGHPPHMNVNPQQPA
UniProt P38647, residues 47-679: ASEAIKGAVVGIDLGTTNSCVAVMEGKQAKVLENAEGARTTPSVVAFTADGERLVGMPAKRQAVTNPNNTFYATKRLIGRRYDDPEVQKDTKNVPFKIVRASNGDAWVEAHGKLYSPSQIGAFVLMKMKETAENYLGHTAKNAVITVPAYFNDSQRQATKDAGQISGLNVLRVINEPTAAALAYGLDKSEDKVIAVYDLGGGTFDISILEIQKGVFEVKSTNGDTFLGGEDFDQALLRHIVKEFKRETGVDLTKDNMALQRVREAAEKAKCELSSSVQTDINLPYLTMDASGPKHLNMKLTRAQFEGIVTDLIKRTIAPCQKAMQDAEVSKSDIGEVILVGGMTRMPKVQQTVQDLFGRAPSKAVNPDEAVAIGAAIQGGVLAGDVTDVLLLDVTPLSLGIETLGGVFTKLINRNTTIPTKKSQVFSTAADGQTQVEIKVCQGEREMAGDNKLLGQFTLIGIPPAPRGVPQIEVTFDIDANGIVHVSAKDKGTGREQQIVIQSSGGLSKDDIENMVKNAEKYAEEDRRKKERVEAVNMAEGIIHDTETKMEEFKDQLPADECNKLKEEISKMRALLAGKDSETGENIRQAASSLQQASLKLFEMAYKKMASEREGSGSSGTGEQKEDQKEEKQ

Experimental findings from article PMC7704523 are described below.

In this test the target is IP3R1 (mouse (endogenous in cardiomyocytes/heart of C57BL/6JOlaHsd mice)) (UniProt P11881). As to the kind of experiment: co-IP; 500 ug of cardiomyocyte or heart lysate with 2 ug IP3R1 antibody (sc28614) overnight at 4 C in 50 mM Tris, 150 mM NaCl, 1% Triton X-100, 1 mM EDTA; protein G magnetic beads; blots for IP3R1, VDAC, Grp75; SD, HFHSD (16 weeks) and HFHSD/SD (8 weeks of diet reversal) mice.

With Grp75 (from UniProt P38647 47-679), the binding entry is on record as “binds”.
